# Results as given in patent US11230581B2, “Peptides and combination of peptides for use in immunotherapy against ovarian cancer and other cancers” (Immatics Biotechnologies GmbH, priority 2015, dated 2022).
# Experiments:
# [1] = system: additional tumor types; test: LC-MS detection and over-presentation of the peptides on additional tumor types, cell lines and primary cultures; design: species or system human; conditions: for Other relevant organs/ cancerous diseases: Table 4A: additional tumor types on which the peptide was found, over-presented on more than 5% of measured tumor samples, or presented on more than 5% with ratio of geometric means tumor vs normal tissues larger than 3
# [2] = system: ovarian cancer samples; test: Relative LC-MS quantitation of HLA-presented peptides: presentation and over-presentation on ovarian cancer vs a panel of normal tissues (presentation score); design: species or system human; key: +++: very highly over-presented on tumors compared to a panel of normal tissues; ++: highly over-presented on tumors compared to a panel of normal tissues; +: over-presented on tumors compared to a panel of normal tissues; conditions: over-presentation on tumors compared to a panel of normal tissues
# [3] = amendment of Table 4: additional tumor types showing over-presentation (including specific presentation) on more than 5% of measured tumor samples, or presentation on more than 5% with ratio of geometric means tumor vs normal tissues larger than 3
# [4] = additional tumor types with over-presentation on more than 5% of the measured tumor samples, or presentation on more than 5% with ratio of geometric means tumor vs normal tissues larger than 3
Substance,"Additional organs/cancerous diseases [1, 3]",Peptide Presentation (presentation score) [2],Other relevant organs/ cancerous diseases [1],"Additional organs/cancerous diseases [1, 4]"
73 (NIFDLQIYV; listed as Homo sapiens) [compound 73],BRCA,+++,,
141 (YLDFSNNRL; listed as Homo sapiens) [compound 141],CLL,+++,"SCLC, BrCa",
434 (KVSNSGITRV; listed as Homo sapiens) [compound 434],,+++,NSCLC,"Esophageal Cancer, HNSCC"
169 (NLPEYLPFV; listed as Homo sapiens) [compound 169],,+++,"SCLC, BrCa, Urinary bladder Cancer",
476 (ALMERTGYSMV; listed as Homo sapiens) [compound 476],,+++,HCC,Uterine Cancer
413 (TLLEKVEGC; listed as Homo sapiens) [compound 413],,++,,Melanoma
170 (RLQETLSAA; listed as Homo sapiens) [compound 170],"Urinary Bladder Cancer, AML",+++,"HCC, Esophageal Cancer",
249 (LLDGFLVNV; listed as Homo sapiens) [compound 249],,+++,SCLC,"CLL, Melanoma, NHL"
142 (FLFATPVFI; listed as Homo sapiens) [compound 142],,+++,SCLC,
124 (ALYETELADA; listed as Homo sapiens) [compound 124],"CLL, Uterine Cancer, AML, NHL",+++,,
246 (LLWEVVSQL; listed as Homo sapiens) [compound 246],,+++,,BRCA
40 (TLLVKVFSV; listed as Homo sapiens) [compound 40],Melanoma,+++,,
1 (SLMEPPAVLLL; listed as Homo sapiens) [compound 1],"BRCA, Urinary Bladder Cancer, Uterine Cancer, AML, HNSCC",+++,"NSCLC, SCLC, Esophageal Cancer",
435 (WLMPVIPAL; listed as Homo sapiens) [compound 435],,+++,SCLC,"Melanoma, Gallbladder Cancer and Bile Duct Cancer, AML"
106 (LLYDAVHIVSV; listed as Homo sapiens) [compound 106],,+++,Brain Cancer,
454 (KLPPPPPQA; listed as Homo sapiens) [compound 454],,+++,"NSCLC, SCLC","BRCA, AML, HNSCC"
526 (RLAEVGQYEQV; listed as Homo sapiens) [compound 526],,+,"NSCLC, HCC, MCC, Gallbladder Cancer, Bile Duct Cancer","Uterine Cancer, NHL"
190 (FLSSLTETI; listed as Homo sapiens) [compound 190],,+++,Urinary bladder Cancer,"BRCA, Uterine Cancer, Gallbladder Cancer and Bile Duct Cancer"
172 (VLYSYTIITV; listed as Homo sapiens) [compound 172],"SCLC, CLL, Uterine Cancer, NHL",+++,,
504 (GLSDGNPSL; listed as Homo sapiens) [compound 504],,+++,"Leukemia, BrCa","CLL, Uterine Cancer"
61 (FLQGYQLHL; listed as Homo sapiens) [compound 61],"Urinary Bladder Cancer, Uterine Cancer, Gallbladder Cancer and Bile Duct Cancer, NHL, HNSCC",+++,"NSCLC, SCLC, BrCa, Melanoma, Esophageal Cancer",
384 (ILFANPNIFV; listed as Homo sapiens) [compound 384],,+,"CRC, Leukemia, Melanoma","CLL, Urinary Bladder Cancer, Uterine Cancer, NHL"

Substance,"Additional organs/cancerous diseases [1, 3]",Peptide Presentation (presentation score) [2],Other relevant organs/ cancerous diseases [1],"Additional organs/cancerous diseases [1, 4]"
488 (FLAEDPKVTL; listed as Homo sapiens) [compound 488],,+,Leukemia,"CLL, BRCA, Melanoma, Urinary Bladder Cancer, NHL"
289 (VLLEIEDLQV; listed as Homo sapiens) [compound 289],,+,"Leukemia, BrCa","CLL, NHL"
395 (ALALGGIAVV; listed as Homo sapiens) [compound 395],,++,"NSCLC, CRC, HCC, PrC, Leukemia, BrCa, Melanoma, Esophageal Cancer, Urinary bladder Cancer, Uterine Cancer","CLL, NHL, HNSCC"
481 (GLIEDYEALL; listed as Homo sapiens) [compound 481],,+++,SCLC,"Melanoma, AML"
433 (AMLNEPWAV; listed as Homo sapiens) [compound 433],,+++,SCLC,"BRCA, Melanoma, Urinary Bladder Cancer, HNSCC"
94 (YLIDIKTIAI; listed as Homo sapiens) [compound 94],"SCLC, Melanoma, Urinary Bladder Cancer",+++,HCC,
153 (FLIANVLYL; listed as Homo sapiens) [compound 153],HNSCC,+++,"SCLC, Urinary bladder Cancer, Uterine Cancer",
318 (GLINTGVLSV; listed as Homo sapiens) [compound 318],,+,"Colon, Rectum","SCLC, CLL, NHL, HNSCC"
382 (ALQNYIKEA; listed as Homo sapiens) [compound 382],,+,Esophageal Cancer,BRCA
93 (LLQAIKLYL; listed as Homo sapiens) [compound 93],"Urinary Bladder Cancer, Gallbladder Cancer and Bile Duct Cancer",+++,BrCa,
441 (ALLENPKMEL; listed as Homo sapiens) [compound 441],,+++,"NSCLC, SCLC, CRC, HCC, MCC, Esophageal Cancer",Urinary Bladder Cancer
76 (ILIDSIYKV; listed as Homo sapiens) [compound 76],Uterine Cancer,+++,"SCLC, CRC, BrCa",
51 (LLPDLEFYV; listed as Homo sapiens) [compound 51],"Melanoma, Urinary Bladder Cancer",+++,"SCLC, PrC, Gallbladder Cancer, Bile Duct Cancer",
472 (KLLEVSDDPQV; listed as Homo sapiens) [compound 472],,++,"HCC, MCC, Melanoma, Esophageal Cancer",HNSCC
593 (GLPRFGIEMV; listed as Homo sapiens) [compound 593],,+,Brain Cancer,
351 (SLIPNLRNV; listed as Homo sapiens) [compound 351],,+++,,"CRC, Esophageal Cancer"
501 (LLDPNVKSIFV; listed as Homo sapiens) [compound 501],,++,"NSCLC, SCLC, Brain Cancer, HCC, PrC, MCC, Melanoma, Esophageal Cancer, Gallbladder Cancer, Bile Duct Cancer","BRCA, Urinary Bladder Cancer, HNSCC"
29 (KMLGIPISNILMV; listed as Homo sapiens) [compound 29],"Urinary Bladder Cancer, Gallbladder Cancer and Bile Duct Cancer",++,,
404 (AIDISGRDPAV; listed as Homo sapiens) [compound 404],,+,"SCLC, Leukemia",
101 (ILVGGGALATV; listed as Homo sapiens) [compound 101],,+++,"Melanoma, Urinary bladder Cancer",
342 (HIYDKVMTV; listed as Homo sapiens) [compound 342],,+,"Colon, Rectum","Esophageal Cancer, Gallbladder Cancer and Bile Duct Cancer"
